From publication PMC11230868, “eIF2β zinc-binding domain interacts with the eIF2γ subunit through the guanine nucleotide binding interface to promote Met-tRNAi^Met binding” (Bioscience Reports, 2024)
These are yes or no findings as the source states them, for the method shown. For some assays here: Binding seen in cells or lysates may run through a third protein. Some entries that bind do so weakly or less than the wild type.

Amino acid sequences for entries named in this document (tags omitted).
UniProt P32481: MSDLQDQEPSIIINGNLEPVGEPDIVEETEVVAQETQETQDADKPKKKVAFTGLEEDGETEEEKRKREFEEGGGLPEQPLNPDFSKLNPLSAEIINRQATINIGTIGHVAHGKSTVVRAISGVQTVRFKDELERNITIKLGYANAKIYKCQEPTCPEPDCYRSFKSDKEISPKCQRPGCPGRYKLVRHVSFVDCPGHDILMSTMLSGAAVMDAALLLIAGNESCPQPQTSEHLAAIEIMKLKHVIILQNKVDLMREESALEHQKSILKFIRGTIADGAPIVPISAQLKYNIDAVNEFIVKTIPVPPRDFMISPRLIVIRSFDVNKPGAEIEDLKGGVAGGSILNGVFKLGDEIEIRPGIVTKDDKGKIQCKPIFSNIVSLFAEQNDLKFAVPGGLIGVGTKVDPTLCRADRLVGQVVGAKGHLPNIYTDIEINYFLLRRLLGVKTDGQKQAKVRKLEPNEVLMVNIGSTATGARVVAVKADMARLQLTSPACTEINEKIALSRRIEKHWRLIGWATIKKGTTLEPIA

Assays:
[1] = target: 8xHis-tagged eIF2γ subunit (yeast) (UniProt P32481); assay: co-purification; eIF2 complex purified through 8xHis-eIF2γ from yeast YP920: Ni-NTA (500 mM KCl, 20 mM imidazole), then heparin and cation exchange columns; subunit levels in the purified complex
[2] = target: T1, N-terminal 3xHA-tagged eIF2γ (wild type) (yeast, UniProt P32481 1-527); assay: co-IP; 3xHA-eIF2γ precipitated with anti-HA agarose beads from 300 μg yeast WCE (YP912), 4°C, 1 h; 20 mM HEPES pH 7.5, 100 mM KCl, 5 mM MgCl2, 5 mM NaF, 1 mM EDTA, 0.2% NP-40, 1% BSA; Western blot, bands normalised to the anti-HA band
T1 construct: eIF2γ, yeast GCD11; GCD11 ORF + terminator cloned behind GCD11 promoter + 3xHA; also called 3xHA eIF2γ; eIF2γ^WT; source: yeast strain YP912 (gcd11Δ, sui3Δ), single-copy plasmid, in whole-cell extract; not shown: 3xHA, N-terminal, kept

Row | Binder | binding [1] | binding [2]
1 | eIF2α subunit (natural protein, yeast, UniProt P20459 1-304, looked up, eIF2α, yeast SUI2; chromosomal gene in the co-IP strains, whole SUI2 gene on pRS425 for the purified complex; also called SUI2; source: endogenous, yeast whole-cell extract (YP912); yeast YP920, high-copy pRS425 plasmid, co-purified in the 8xHis-eIF2 complex) MSTSHCRFYENKYPEIDDIVMVNVQQIAEMGAYVKLLEYDNIEGMILLSELSRRRIRSIQKLIRVGKNDVAVVLRVDKEKGYIDLSKRRVSSEDIIKCEEKYQKSKTVHSILRYCAEKFQIPLEELYKTIAWPLSRKFGHAYEAFKLSIIDETVWEGIEPPSKDVLDELKNYISKRLTPQAVKIRADVEVSCFSYEGIDAIKDALKSAEDMSTEQMQVKVKLVAAPLYVLTTQALDKQKGIEQLESAIEKITEVITKYGGVCNITMPPKAVTATEDAELQALLESKELDNRSDSEDDEDESDDE | binds | 
2 | 40S ribosomal protein Rps20 (protein, UniProt P38701 1-121) MSDFQKEKVEEQEQQQQQIIKIRITLTSTKVKQLENVSSNIVKNAEQHNLVKKGPVRLPTKVLKISTRKTPNGEGSKTWETYEMRIHKRYIDLEAPVQIVKRITQITIEPGVDVEVVVASN |  | no binding
